# From publication PMC12040169 (PLOS Biology, 2025)
# Some of the results follow.
# System: T1, CTL2-GFP (C. trachomatis L2/434/Bu, GFP-expressing)
# T1 construct: L2/434/Bu, GFP-expressing
# Set-up: species or system HeLa; Intracellular C. trachomatis growth in HeLa cells, bulk GFP fluorescence relative to DMSO
# Conditions: bulk GFP, single well; 28.5 h, 10 µM; inhibitor
row,SMILES,% of control remaining [%]
1,COc1cc(OC)cc(C(=O)Nc2cccc(-c3nc4ccccc4o3)c2)c1 [CBK097706],100
2,COc1ccc(-c2noc(CN(C)C(=O)c3cccs3)n2)cc1 [CBK270286],127.125
3,O=C(Cn1cnc(NCc2cscn2)n1)N1CCCCCC1 [CBK304061],86.7145
4,Cc1nn(C)c2ncc(S(=O)(=O)Nc3ccc(F)cn3)cc12 [CBK305175],136.132
5,CC(Oc1ccc(Cl)cc1Cl)C(=O)N1CCN(Cc2ccc3c(c2)OCO3)CC1 (centres unmarked) [CBK074438],115.068
6,O=C(CCCOc1ccccc1)Nc1cccnc1N1CCNCC1 [CBK028258T],127.881
7,Cc1nn(C)c(Oc2ccc3c(c2)CCCC3)c1[N+](=O)[O-] [CBK000273],126.414
8,CN(C)S(=O)(=O)c1ccc(C(=O)Nc2ccc3ncn(C)c(=O)c3c2)cc1 [CBK268450],93.6987
9,OCc1ccc(-n2ncc(-c3ccc(F)cc3F)n2)cc1 [CBK112731],105.392
10,COc1ccc([N+](=O)[O-])cc1NC(=O)N[C@@H]1CC[C@@]2(c3ccc(OC)c(OC)c3)CCN(C)[C@H]2C1 [CBK036449T],78.6816
11,Cc1nn(C)c(S(=O)(=O)N2CCOCC2c2cccc(F)c2)c1C(F)F (centres unmarked) [CBK304729],99.627
12,COc1cccc(CC(=O)NCc2ccccc2OC2CCNC2)c1 (centres unmarked) [CBK024487T],108.296
13,Cc1n[nH]c(O)c1C(c1ccc(OC(=O)c2ccccc2)cc1)c1c(C)n[nH]c1O [CBK265019],105.688
14,O=c1sn(-c2ccccc2C(F)(F)F)c(=O)n1CC1CC1 [CBK113675],134.789
15,O=C1CC(N(O)c2ccccc2)C(=O)N1c1ccc(F)cc1 (centres unmarked) [CBK288419],102.329
16,O=C(NNC(=S)NCC1CCCO1)c1cccnc1 (centres unmarked) [CBK266842],143.583
17,COc1ccc(N(C)C(=O)c2ccc(Cn3nc(NC(=O)Cc4ccc5c(c4)OCO5)c4ccccc43)cc2)cc1 [CBK059530],122.202
18,CCOc1ccc(Cc2nnnn2CC(=O)O)cc1 [CBK286677],147.518
19,COc1ccc(CCNCC2OCCCc3cc(OC)c(OC)cc32)cc1OC (centres unmarked) [CBK012466C],130.879
20,CCCC/C=C/c1cnc2[nH]c(=O)n([C@H](C)c3ccccc3)c2n1 [CBK064182],125.645
21,CC1CCC(C(N)=O)CN1C(=O)c1csc(COc2ccc(Cl)cc2)n1 (centres unmarked) [CBK304948],95.7425
22,O=C1NC2(CCC(=O)N(Cc3ccccc3)CC2)Nc2ccccc21 (centres unmarked) [CBK284439],97.8371
23,COc1ccc(C(=O)NNS(=O)(=O)N(C)C)cc1OC [CBK267697],143.586
24,COc1ccc(C(C)C)cc1S(=O)(=O)NCCc1c(C)[nH]c2c(Cl)cccc12 [CBK266983],109.687
25,COc1ccc(/C=C/C(C)=C\C(=O)O)c(OC)c1 [CBK262237N],111.327
26,CS(=O)(=O)Nc1cccc(C2=NN(S(=O)(=O)c3ccc(Cl)cc3)C(c3ccccc3F)C2)c1 (centres unmarked) [CBK268762],69.3194

row,SMILES,% of control remaining [%]
1,CC(=O)Nc1ccc(S(=O)(=O)N2CCN(Cc3ccc([N+](=O)[O-])cc3)CC2)cc1 [CBK264231G],131.484
2,COc1ccccc1CN(C)C(=O)CCc1ccc(S(N)(=O)=O)cc1 [CBK304585],88.7758
3,COc1ccc(C2C(C(=O)c3ccc(Cl)cc3)=C(O)C(=O)N2CCN(C)C)cc1OC (centres unmarked) [CBK264660],131.489
4,Clc1ccccc1-c1cn2ccnc2c(NCc2cccnc2)n1 [CBK038039],124.11
5,COc1ccc(S(=O)(=O)Nc2ccc(C)cc2)cc1C(=O)Nc1ccc(C)cc1 [CBK265172],117.655
6,CCc1ccc(-c2csc(NC(=O)CN3C(=O)CCC3=O)n2)cc1 [CBK287347],154.759
7,O=C(O)CC1CCN(c2ccc(C(F)(F)F)cn2)CC1 [CBK286850],136.148
8,CCN1CCC2(C/C=C/CNC(=O)c3ccccc3OCCN(C)C2=O)CC1 [CBK292061],139.361
9,CCCCC(=O)N1CC(n2nc(-c3ccccc3)ccc2=O)C1 [CBK284615],190.878
10,CC(=O)Nc1ccc(CN2C[C@@H]3OCC(=O)N(C)[C@@H]3C2)cc1 [CBK289240],123.464
11,O=C(NCCc1ccccc1)c1ncoc1-c1cccs1 [CBK283662],101.91
12,CC(C)(C)NS(=O)(=O)c1cccc2nonc12 [CBK265569],112.84
13,CCc1cc2c(=O)c(-c3nc(C)cs3)c(CCC(=O)O)oc2cc1O [CBK264838],124.014
14,CCc1csc(C(=Cc2ccc(OC)cc2)C(N)=O)n1 [CBK001010],126.128
15,Brc1ccccc1OCCc1ccccc1 [CBK004519],128.76
16,Cn1c(/N=C(\C=N\c2cc(=O)n(C)c(=O)n2C)c2ccccc2)cc(=O)n(C)c1=O [CBK303237],145.063
17,C=CCSc1nnc(-c2ccccc2NC(=O)CC)c(O)n1 [CBK266411],84.6554
18,CC1CCc2c(sc3ncnc(OCC(=O)N(C)CCC#N)c23)C1 (centres unmarked) [CBK304976],115.12
19,O=C(CS(=O)(=O)c1cc2c(N3CCNCC3)nccc2s1)c1ccc(N2CCCC2)cc1 [CBK042232C],114.837
20,CC(=O)N1C[C@@H]2CCCCN(CCOc3ccccc3)[C@@H]2C1 [CBK285494],105.186
21,COCCN(Cc1ccncc1)C(=O)c1cc(C(C)C)n2ncnc2n1 [CBK306983],121.801
22,CC(=O)N1CCC(C(=O)NC(=O)NCc2ccc(F)cc2)CC1 [CBK034834],122.185
23,COc1ccccc1NC(=O)CN1CCN(CCC(=O)c2ccc(C(C)C)cc2)CC1 [CBK023925C],93.2933
24,COc1ccc(F)c(CN(CC2CCNCC2)C(=O)Nc2ccccc2C(F)(F)F)c1 [CBK049805],99.9977
25,CCOC(=O)C1=C(C)N(c2ccc(C(=O)O)cc2)C(=O)NC1c1ccc(OC(F)F)c(OC)c1 (centres unmarked) [CBK297878],127.929
26,CCOC(=O)c1sc2cccc(F)c2c1COC(=O)c1ccc(CNC(N)=O)cc1 [CBK297873],138.219

row,SMILES,% of control remaining [%]
1,CCN1C(=O)C2(CC(=O)N(CCc3cccc(OC)c3)C2=O)c2cc(C)ccc21 (centres unmarked) [CBK075195],85.7854
2,O=C(Cc1ccc([N+](=O)[O-])cc1)N/N=C/c1ccc(O)cc1 [CBK262152],115.157
3,Nc1ncc(-c2ccc3c(c2)OCO3)nc1N1CCC(C(=O)O)CC1 [CBK064074],206.595
4,NS(=O)(=O)c1ccc(NS(=O)(=O)c2ccc(NC(=O)C3CC3)cc2)cc1 [CBK264958],83.9243
5,Nc1ncncc1-c1ccc(Cl)cc1 [CBK012407],107.996
6,CC(/C=C/c1ccc(N(C)C)cc1)=N\NC(=N)SC1CC(=O)N(c2ccc(C(=O)O)cc2)C1=O (centres unmarked) [CBK262460],100
7,O=C(c1cnccn1)N1C[C@@H]2OCC(=O)N(CC3CC3)[C@@H]2C1 [CBK289681],127.471
8,O=C(CSCc1ccc([N+](=O)[O-])cc1)Nc1ccc2c(c1)OCO2 [CBK264031],109.388
9,Cc1cccnc1C(c1ccccc1)N(C)C(=O)C1CCN(C(=O)NCc2ccccc2)CC1 (centres unmarked) [CBK074119],108.946
10,CCNC(=O)Nc1nn(Cc2ccc(OC)cc2)c2ccccc12 [CBK105837],117.083
11,O=C(NCc1ccccc1F)c1cccc(CN2C(=O)CSC2=O)c1 [CBK296730],138.701
12,Cc1ccc(C)c2c(C)c(C(=O)NCC[S+](C)[O-])[nH]c12 (centres unmarked) [CBK282484],135.814
13,Cn1nccc1C(=O)NC1CCN(CC2(c3ccccc3)CC2)CC1 [CBK285373],107.303
14,COc1cc(Nc2cccc3c2C(=O)c2ccccc2C3=O)c(OC)cc1C=O [CBK262677],114.105
15,CNCC1CCCN1S(=O)(=O)c1ccc(OCc2ncnn2C)cc1 (centres unmarked) [CBK304500],129.134
16,CS(=O)(=O)N(CC(=O)NCc1ccccn1)Cc1ccc(Cl)cc1 [CBK267982],124.412
17,Cc1cc(Cl)ccc1CNC(=O)c1ccc2[nH]ccc2c1 [CBK149048],104.647
18,CCCN(CCC)C(=O)c1ccc(NC(=O)CC)cc1 [CBK304391],114.978
19,CN1[C@@H](CCC(=O)NCc2ccc(F)cc2)CNC(=O)[C@@H]2[C@H]1CCN2C1CCOCC1 [CBK289023],148.2
20,C/C(=N\OCC(=O)N(Cc1ccccc1)c1ccccc1C(=O)O)c1cccs1 [CBK077414],93.4807
21,N#Cc1c(Nc2cccc(F)c2)sc2c(O)cc(=O)[nH]c12 [CBK270250],140.179
22,CN1CCN(Cc2c(O)ccc3c(=O)c(-c4ccc(Cl)cc4)coc23)CC1 [CBK263314],105.185
23,Cn1c(=O)c2c(nc(N3CCOCC3)n2CC/N=C2/CCCCCN2)n(C)c1=O [CBK267708C],159.415
24,CCN(CC)CCNC(=O)c1ccc(Nc2cncc(-c3ccc(O)cc3)n2)c(OC)c1 [CBK122659],51.5567
25,CC(=O)N1CCN(CCCC(c2ccc(F)cc2)c2ccc(F)cc2)CC1 [CBK024944C],134.606

# Arranged by length of the SMILES (ascending): some entries from above
row,SMILES,% of control remaining [%]
11,O=C(NCc1ccccc1F)c1cccc(CN2C(=O)CSC2=O)c1 [CBK296730],138.701
22,CN1CCN(Cc2c(O)ccc3c(=O)c(-c4ccc(Cl)cc4)coc23)CC1 [CBK263314],105.185
4,NS(=O)(=O)c1ccc(NS(=O)(=O)c2ccc(NC(=O)C3CC3)cc2)cc1 [CBK264958],83.9243

# Copied from the listing, 2 compounds:
row,SMILES,% of control remaining [%]
18,CCCN(CCC)C(=O)c1ccc(NC(=O)CC)cc1 [CBK304391],114.978
19,CN1[C@@H](CCC(=O)NCc2ccc(F)cc2)CNC(=O)[C@@H]2[C@H]1CCN2C1CCOCC1 [CBK289023],148.2
